# Assay results from the supplement of paper PMC12823440, “Inhibitors supercharge kinase turnover through native proteolytic circuits” (Nature, 2025).
# The other results are listed elsewhere or left out. Hit calls seldom repeat between salt and free forms of one compound.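 Kinases, fused to nanoluciferase, were expressed in K562 cells; luminescence was measured every 4 h from 2 to 18 h as percent of control (DMSO = 100%, positive control = 0%). A time point is decreased if signal falls significantly (2 sigma). Hits were called by the authors by a rule that is not shown; the count of time points alone does not decide it.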
# Molecular target: PRKCA (UniProt P17252)
# Experiment: number of time points (of 5) at which kinase-Nluc abundance scored as decreased, DMSO-normalised (count); higher = more persistent destabilization
# Conditions: K562; 2-18 h
row,Compound,number of time points
1,COc1ccc(Cn2cc(C(=O)N=Nc3c(O)[nH]c4c(C)cccc34)nn2)cc1 [MARK4 inhibitor 1] (10 µM),0
2,COc1cc([N+](=O)[O-])ccc1S(=O)(=O)N1C[C@@H](CN2CCN(c3ccccn3)CC2)[C@H](c2cccc(F)c2)C1 (relative stereo) (10 µM),0
3,Cc1cc(Nc2nc(N[C@@H](C)c3ccc(F)cc3)c(C#N)cc2F)n[nH]1 (10 µM),0
4,Cc1ccc(S(=O)(=O)/C=C/C#N)cc1 (10 µM),0
5,Cc1c(CN2CCN(S(C)(=O)=O)CC2)sc2c(N3CCOCC3)nc(-c3cnc(N)nc3)nc12 (2.5 µM),0
6,COc1ccc(-c2ccc3c(N4CCOC[C@@H]4C)nc(N4CCOC[C@@H]4C)nc3n2)cc1CO (2.5 µM),0
7,CCN(CC)S(=O)(=O)c1ccc(OC)c(N2CCN(C(=O)c3ccc(F)cc3C(F)(F)F)CC2)c1 (10 µM),0
8,CC1CN(C(=O)Nc2ccc(Cl)c(Cl)c2)C(=Nc2ccc(F)cc2)S1 (configuration not stated) (10 µM),0
9,COCCO[C@@H]1[C@H](O)[C@@H](CO)O[C@H]1n1cnc2c(=O)[nH]c(N)nc21 [2′-O-(2-Methoxyethyl)guanosine] (10 µM),0
10,COc1cc(F)c(F)c(Nc2ccc(I)cc2F)c1NS(=O)(=O)C1(C[C@H](O)CO)CC1 [Refametinib] (10 µM),0
11,CC(C)=CC[C@H](O)C1=CC(=O)c2c(O)ccc(O)c2C1=O [(-)-Alkannin] (2.5 µM),0
12,C[C@@]1(O)CCC[C@H]1n1c(=O)c(C(F)F)cc2cnc(NC3CCN(S(C)(=O)=O)CC3)nc21 (2.5 µM),0

# Exported bar-delimited: entries from further up.
row | Compound | number of time points
2 | COc1cc([N+](=O)[O-])ccc1S(=O)(=O)N1C[C@@H](CN2CCN(c3ccccn3)CC2)[C@H](c2cccc(F)c2)C1 (relative stereo) (10 µM) | 0
5 | Cc1c(CN2CCN(S(C)(=O)=O)CC2)sc2c(N3CCOCC3)nc(-c3cnc(N)nc3)nc12 (2.5 µM) | 0
